Test results: patent US20190330334A1 (KAO, published 2019)
No constants are given. Whether binding was seen depends on the method and setting. Some binding calls cover weakened binding; strength is not graded here. Ends that are not written are not given here.

Biological target: active GIP, GIP(1-42)
Assay: sandwich ELISA, anti-total GIP capture antibody, biotinylated m1 as detection antibody at 1 ug/mL, GIP 8.2 to 2000 pg/mL

- binding: binds
B1: anti-active GIP monoclonal antibody produced by hybridoma 9B9H5-B9 line (Production Example 1) (antibody, V domains shown)
VH: QVQLQQPGAELVKPGASVKLSCKASGYTFTSFWMHWVIQRPGQGLEWIGEMNPSDGRTHFNEKFKTKATLTIDTSSNTAYMELNSLTSEDSAVYYCARRMEDWGQGTLVTVSA
VL: DIKMTQSPSSMYASLGERVTITCKASQDINSYLGWFQQKPGKSPKTLIYGANRLVDGVPSRFSGSGSGQDYSLTISSLEYDDMGIYYCLQYDEFPLTFGAGTKLELKR
notes: also called anti-active GIP antibody; anti-GIP antibody
